Measured values as given in publication PMC7819943, “Rice protein-binding microarrays: a tool to detect cis-acting elements near promoter regions in rice”.
The other results are listed elsewhere or left out.

Molecular target: T1, OsSMF1 (Oryza sativa, UniProt Q6ZLB0 1-436)
T1 sequence: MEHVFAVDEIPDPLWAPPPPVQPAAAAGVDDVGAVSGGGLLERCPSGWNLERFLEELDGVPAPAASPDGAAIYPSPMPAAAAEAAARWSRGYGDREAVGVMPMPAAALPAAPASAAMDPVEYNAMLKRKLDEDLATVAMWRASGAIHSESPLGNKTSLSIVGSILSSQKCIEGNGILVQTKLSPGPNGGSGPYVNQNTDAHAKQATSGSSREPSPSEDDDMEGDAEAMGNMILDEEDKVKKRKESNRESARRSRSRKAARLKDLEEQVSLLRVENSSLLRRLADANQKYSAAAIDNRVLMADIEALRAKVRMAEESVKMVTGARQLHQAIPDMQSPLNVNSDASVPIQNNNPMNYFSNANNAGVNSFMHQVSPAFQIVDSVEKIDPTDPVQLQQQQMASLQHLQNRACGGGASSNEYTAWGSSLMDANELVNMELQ
Assay: protein-binding microarray (RPBM); PBS, 2% BSA, 51.3 ng/ul salmon testes DNA, 50 uM zinc acetate, 200 nM TF, 25 C, 1 h; high values mean tight binding
Details: protein: recombinant; tags: N-terminal polyhistidine and DsRed monomer fusion (pET32a); chain copies: 2; label: CyDye5-dUTP incorporated in the synthesized complementary strand; 3' TTTTT single-stranded linker to array surface; dsDNA, one strand shown
How it was run: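 The binding signal for each feature is its fluorescence intensity in arbitrary units. An Axon 4000B scanner was used to read a custom Agilent array that had been made double-stranded with Cy5-dUTP primer extension, blocked with 2% BSA, incubated at 25 °C for 1 h with 200 nM protein in PBS, 2% BSA, salmon testes DNA and 50 µM zinc acetate, and washed. The protein was an N-terminal polyhistidine–DsRed transcription factor fusion from E. coli BL21-CodonPlus, purified on Ni–NTA.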

Sequence	binding signal
ATAATGAAAATGAGAATTCATGCCAGCTCTGCAAAGTGGACGGAGTCACCTAGTGCAG	4780 fluorescence intensity (a.u.)
CGACCTGAGGTTGGCGGTCGGCATGACGTCACGGGTGGGACGGAGTCACCTAGTGCAG	24200 fluorescence intensity (a.u.)
CCCACAGCGCCGCCCGTCGCCGGCTCAGAAAAGTGAGAGACGGAGTCACCTAGTGCAG	5930 fluorescence intensity (a.u.)
ACCAGCCCACTCAACTGCTGACTCACTCAAGTGATGGTAGCGGAGTCACCTAGTGCAG	5840 fluorescence intensity (a.u.)
TTTGATTATGCTTGTCATTTCCATTCATTTGCTCATATACCGGAGTCACCTAGTGCAG	3350 fluorescence intensity (a.u.)
GAGATGGAAGGTTTGCTGACACAAAGTGCTGTTCTACGCCCGGAGTCACCTAGTGCAG	5050 fluorescence intensity (a.u.)
GACTCGCCACCCCACCATCACCACCCAACCCAACCCAACCCGGAGTCACCTAGTGCAG	3380 fluorescence intensity (a.u.)
CTCTCTTTCCATTCTCCCCGGCGATCGAGTAGCCGGCTTCCGGAGTCACCTAGTGCAG	3930 fluorescence intensity (a.u.)
GAATGACACCGTTATGCTCCGCAATGCGCAGTTTATCTTGCGGAGTCACCTAGTGCAG	3240 fluorescence intensity (a.u.)
AGTAAAACTACCGTCCACGTCACCACCCAACCCCAACGTACGGAGTCACCTAGTGCAG	28400 fluorescence intensity (a.u.)
GCTTGACAAGCAACCACGTCGATCGACCGTCCGTCGTCACCGGAGTCACCTAGTGCAG	3260 fluorescence intensity (a.u.)
ATTATCACTGATGAGCCTAGCTATCAACCATAAACCAAACCGGAGTCACCTAGTGCAG	20500 fluorescence intensity (a.u.)
AGCTGCATTGTTGACTCACTAACCCACGACCGGCGGTCCACGGAGTCACCTAGTGCAG	7310 fluorescence intensity (a.u.)
AAAACATGAATTTCGAGATGATGACCTACTTGATCCTAGGCGGAGTCACCTAGTGCAG	3390 fluorescence intensity (a.u.)
CCACACACTTATGAACACGAGTACAGCCGATGCCCTATAACGGAGTCACCTAGTGCAG	3390 fluorescence intensity (a.u.)
ATGACAAGACTCACCACTAATTAATTAATGACACACCTGGCGGAGTCACCTAGTGCAG	6000 fluorescence intensity (a.u.)
CCCTATCCTCTCTTTTCCCCGACGCAAACACACGCTGGCTCGGAGTCACCTAGTGCAG	3240 fluorescence intensity (a.u.)
CCGCCGTCCAACTCTGCCACGGCCGCCACGTACGCGCGCCCGGAGTCACCTAGTGCAG	13800 fluorescence intensity (a.u.)
TCTCCGGCGACGTTTCTTGATCGTGTTTGTGACTGTGTGCCGGAGTCACCTAGTGCAG	3420 fluorescence intensity (a.u.)
TCTGAGTGGTTCTCTGGGCGTTGTTGGTGCGTTCTTGATCCGGAGTCACCTAGTGCAG	3240 fluorescence intensity (a.u.)
TAAACAGGGCCCTACTGTCATCACGTCGATGTTGAGTTTACGGAGTCACCTAGTGCAG	4070 fluorescence intensity (a.u.)

Sequence	binding signal
AGATGTGTAGCTCCACACAAACCCATCATCACCTTCAACCCGGAGTCACCTAGTGCAG	3260 fluorescence intensity (a.u.)
TTATAGCTAATCCATTGTACATGTCAGCTCTAATACATGTCGGAGTCACCTAGTGCAG	5620 fluorescence intensity (a.u.)
AAAGTTAAATAGAAAGCGCCCCTTATTAATGAGGTGTGGTCGGAGTCACCTAGTGCAG	3630 fluorescence intensity (a.u.)
GCAATACGAGTCCTGGGTTTTGTTCGACGTGGCACATTGACGGAGTCACCTAGTGCAG	11600 fluorescence intensity (a.u.)
CTATCCATCGGTCGGCTCGATCCGTCCTCCGTTTCGCGTGCGGAGTCACCTAGTGCAG	3150 fluorescence intensity (a.u.)
CACACTATACTTCTCCCCGTGACTCGACTAACTCGACTAACGGAGTCACCTAGTGCAG	3510 fluorescence intensity (a.u.)
AATGCCCAGCGATCCTTGTGGGGTGTTGCTGACACGGAGCCGGAGTCACCTAGTGCAG	7270 fluorescence intensity (a.u.)
ATGGGCTGATTCAGTTAAACACATGAGCATTGAGGTGTTTCGGAGTCACCTAGTGCAG	3610 fluorescence intensity (a.u.)
CATTTGGCCAGCTATAGCTGAGCCTCCCACGTCGCCCGTTCGGAGTCACCTAGTGCAG	3350 fluorescence intensity (a.u.)
CAGTCCGACTCCACGCAAACCCCTTCGCTGGCCGAAGGCCCGGAGTCACCTAGTGCAG	3950 fluorescence intensity (a.u.)
TAATGGTAGGTGATGTATCCGTTAACAACGAGATGTCTATCGGAGTCACCTAGTGCAG	3890 fluorescence intensity (a.u.)
GATAAATATCTGAGGAGGGGATGGGGCCCAGACGTCAGCCCGGAGTCACCTAGTGCAG	3960 fluorescence intensity (a.u.)
GCCCGCTTGTACTTTGCCTGGGCACCGTGTAACCCAGCTTCGGAGTCACCTAGTGCAG	3170 fluorescence intensity (a.u.)
GCCTTACACTGTCCTTGATCTTGTGTGACCCATCTATATACGGAGTCACCTAGTGCAG	3270 fluorescence intensity (a.u.)
AATGCACTGTAAATTTAAGTGAGAAAATCGAGTAAGAGATCGGAGTCACCTAGTGCAG	24900 fluorescence intensity (a.u.)
ACGAATGCGAGAGTGCCACGTGTCCCCAACGGCTAGTGAGCGGAGTCACCTAGTGCAG	14800 fluorescence intensity (a.u.)
GGCTGCTCATTGTCGTCTCATCTGGGCTTTTCAATGGGCTCGGAGTCACCTAGTGCAG	53700 fluorescence intensity (a.u.)
GGAGACGCCGTCGACGACATGCCACGACTTGGCGTCGGGGCGGAGTCACCTAGTGCAG	3860 fluorescence intensity (a.u.)
ATACTACCACTAGTGCATGCCCTCGTGTCACTGCATGTGGCGGAGTCACCTAGTGCAG	6710 fluorescence intensity (a.u.)
AGTATTGATCTGGCGATCTGACTGTGGTTATCTTGCTATCCGGAGTCACCTAGTGCAG	4850 fluorescence intensity (a.u.)
CCACGCCCACACGCCACACGTGTGAAACCGCAACGTGGTGCGGAGTCACCTAGTGCAG	5810 fluorescence intensity (a.u.)

Sequence	binding signal
ACACAGTAGCATGATGAGATTAGCAGTACATGACGAGTTCCGGAGTCACCTAGTGCAG	3150 fluorescence intensity (a.u.)
GGGATTAAAGATGGCTCAGCCGGTCACGTGGCTGAGCCATCGGAGTCACCTAGTGCAG	3780 fluorescence intensity (a.u.)
TCCAAATAGAGTTTAATAATTTGTTTCCTATACTTCCTACCGGAGTCACCTAGTGCAG	28800 fluorescence intensity (a.u.)
AGCTTAGCTTAGCTTAGCTTGCTTACGTCCACACTACTTTCGGAGTCACCTAGTGCAG	3320 fluorescence intensity (a.u.)
TGAAGGAAGTAAAAGAAGTTGTAGTGGTGTGTGATCCAGACGGAGTCACCTAGTGCAG	3220 fluorescence intensity (a.u.)
GCCGACTTGCGCGCCGCCTTGGTCGCCAGCTGTTTCCTCGCGGAGTCACCTAGTGCAG	3520 fluorescence intensity (a.u.)
ATCGGCAAACGCGTTCCACCAAAACCCTCCACGTCAGCATCGGAGTCACCTAGTGCAG	29800 fluorescence intensity (a.u.)
CACGATGATGATGTAGGTGTATCTGCCTGCCCCTCGTCGCCGGAGTCACCTAGTGCAG	3450 fluorescence intensity (a.u.)
CCTACACATATATATATATATATGCATGGCAACTTGGCAACGGAGTCACCTAGTGCAG	3340 fluorescence intensity (a.u.)
CAAACCCTAGCTCATATGGTTGTAGTCTTAGCTACTATCACGGAGTCACCTAGTGCAG	50500 fluorescence intensity (a.u.)
CCCCTTCATGCCAGCACGCTCCCCACATCCACCCACCACCCGGAGTCACCTAGTGCAG	3320 fluorescence intensity (a.u.)
CTGTTTGATTCTTCAGTGGTATGATGTGTAGATGTAGTCCCGGAGTCACCTAGTGCAG	4580 fluorescence intensity (a.u.)
GGATTTAACACTAGAGACCCTAATTTTGCTGCTCAGGCGACGGAGTCACCTAGTGCAG	28500 fluorescence intensity (a.u.)
ATTCGCCCAAACGCCACTCTTAACACGTGGGTATTCGCTGCGGAGTCACCTAGTGCAG	3790 fluorescence intensity (a.u.)
TGATCCTAAGAATTGCCATAGATTACGTGAGTTGCATCACCGGAGTCACCTAGTGCAG	3520 fluorescence intensity (a.u.)
ACAAATGGATTAATGACTGTTTGACTCGCTTGCTCACTAGCGGAGTCACCTAGTGCAG	3410 fluorescence intensity (a.u.)
GCGGTGTCTCATCGTCCTCGCCGCCGCCTCGTCAGTCGTCCGGAGTCACCTAGTGCAG	3970 fluorescence intensity (a.u.)
CGATCGATGGGGATGTGGGGTGTGTTAGTTCCTTCGTCTTCGGAGTCACCTAGTGCAG	3150 fluorescence intensity (a.u.)
GGACCGGAACGCCGTGACGTGCAACGCCATGCTCGCCGGGCGGAGTCACCTAGTGCAG	5860 fluorescence intensity (a.u.)
TTCCCACCCGCCGGCCGGCTTGCCCTGAGAGGAGAAAATGCGGAGTCACCTAGTGCAG	3250 fluorescence intensity (a.u.)
TGGGATATTGGTAGGCTGGTAGCTACTCCGTAGATTTGACCGGAGTCACCTAGTGCAG	29100 fluorescence intensity (a.u.)

2 consecutive records already listed, for reference:
Sequence	binding signal
CCACGCCCACACGCCACACGTGTGAAACCGCAACGTGGTGCGGAGTCACCTAGTGCAG	5810 fluorescence intensity (a.u.)
ACACAGTAGCATGATGAGATTAGCAGTACATGACGAGTTCCGGAGTCACCTAGTGCAG	3150 fluorescence intensity (a.u.)

Copied from the list.
TTCCCACCCGCCGGCCGGCTTGCCCTGAGAGGAGAAAATGCGGAGTCACCTAGTGCAG | binding signal: 3250 fluorescence intensity (a.u.)
TGATCCTAAGAATTGCCATAGATTACGTGAGTTGCATCACCGGAGTCACCTAGTGCAG | binding signal: 3520 fluorescence intensity (a.u.)
GCCGACTTGCGCGCCGCCTTGGTCGCCAGCTGTTTCCTCGCGGAGTCACCTAGTGCAG | binding signal: 3520 fluorescence intensity (a.u.)

The results go on:

Sequence	binding signal
GCATATGAAGGTGAAATGCTGAGCATACGTTTGCTATTTTCGGAGTCACCTAGTGCAG	4370 fluorescence intensity (a.u.)
AAGTTATAACCCACTACATACAAAGATACCACGTCATCATCGGAGTCACCTAGTGCAG	15900 fluorescence intensity (a.u.)
AGTGAGTGGTGGAGGGTTGTGATTGGATGAGTAGTGAAGGCGGAGTCACCTAGTGCAG	4240 fluorescence intensity (a.u.)
CTCCACCATTGCCCATCTCCACGCTGCAGTGCTTGCTCCCCGGAGTCACCTAGTGCAG	3360 fluorescence intensity (a.u.)
TTCGTGGCGGCTCCTCCTGTGCCATGGCCGCCGATGGTGACGGAGTCACCTAGTGCAG	3320 fluorescence intensity (a.u.)
ATATTTGATTAGATCGGTAATGGATGGCTATAACGTATGCCGGAGTCACCTAGTGCAG	21600 fluorescence intensity (a.u.)
GAAGGAAGGACTAACGCCTGGACACGTCACTACCTCACCCCGGAGTCACCTAGTGCAG	19800 fluorescence intensity (a.u.)
ACATTATGCACTACCCTCGTGACACTGACATACATAATCTCGGAGTCACCTAGTGCAG	4010 fluorescence intensity (a.u.)
GGCTACACATGTGGATGAGGACGTGGCACCGAATATGCCGCGGAGTCACCTAGTGCAG	15700 fluorescence intensity (a.u.)
ACGGAGGGTGTAATAATCAATCAATCCTATGTTAATTGTTCGGAGTCACCTAGTGCAG	3480 fluorescence intensity (a.u.)
GCGTGAGGATCAGTGAGCTGTGCGGCTCTCTTTTCTTGTTCGGAGTCACCTAGTGCAG	3300 fluorescence intensity (a.u.)
TCTCCGCCGACCTCGTCGTCGTCGGCGTCCTCATCCAGGCCGGAGTCACCTAGTGCAG	3710 fluorescence intensity (a.u.)
TTCCAGCTCCCCGCCGACTGCAACGTCGACGGCATCCGCGCGGAGTCACCTAGTGCAG	4070 fluorescence intensity (a.u.)
CCACATGTCAGGATGCCACGTCATCTCTCTTTCCCCTCTTCGGAGTCACCTAGTGCAG	33600 fluorescence intensity (a.u.)
TTTTCGCCGCCAGCGCAGATGCTTCATCTTCATTGGCCTTCGGAGTCACCTAGTGCAG	3200 fluorescence intensity (a.u.)
ATTGTGATGAACAGCAAGTTAAAGGTTGGGCATTATAGTGCGGAGTCACCTAGTGCAG	20200 fluorescence intensity (a.u.)
TGGTACGTGGGCAGCGCCTCCTCCGTCACCATGTTCCCTACGGAGTCACCTAGTGCAG	4880 fluorescence intensity (a.u.)
TTATGTGTCTATGATACGTGGACGCAGTGGTAAATCCTTTCGGAGTCACCTAGTGCAG	4700 fluorescence intensity (a.u.)
TGGGCCTTATCGGCCGTGACGGCCCATTACAACTCAGCGCCGGAGTCACCTAGTGCAG	3600 fluorescence intensity (a.u.)
TTATATCGTTTTAATTTCAATTAAACTTTCAATTTTAGTGCGGAGTCACCTAGTGCAG	48400 fluorescence intensity (a.u.)
AACCAGATTTAAGAGTAAATTACATCAGCGGTACACAAACCGGAGTCACCTAGTGCAG	3390 fluorescence intensity (a.u.)

2 entries from above, in CSV form:
Sequence,binding signal
ATGGGCTGATTCAGTTAAACACATGAGCATTGAGGTGTTTCGGAGTCACCTAGTGCAG,3610 fluorescence intensity (a.u.)
GAAGGAAGGACTAACGCCTGGACACGTCACTACCTCACCCCGGAGTCACCTAGTGCAG,19800 fluorescence intensity (a.u.)
